mCherry and percent effect data for 35 compounds are collected here from the supplement of paper PMC8256030.

The subject of assay [1] is SARS-CoV-2 -1 PRF reporter mCherry-FSE-GFP(-1). Put plainly: mCherry (red) intensity as percent of control; higher = higher upstream reporter expression. The following applies: 10 µM; 24 h; HEK293T.
Assay [2] shares this test system. Put plainly: percent effect, decrease of GFP/mCherry ratio (-1 PRF reporter) relative to controls; higher = stronger frameshift inhibition. As to conditions: 10 µM; 24 h; HEK293T.

Molecules are shown by their SMILES. Values joined by “and” are separate entries in the source; they are usually repeats but may differ in a detail not shown here. Equal values may be shown once. Some of the results follow. Repeats in this data set agree poorly, so a single value says little.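 HEK293T cells were given each compound shortly before transfection with a reporter in which red mCherry is followed by the SARS-CoV-2 frameshift element and then GFP in the −1 frame, so GFP appears only after frameshifting.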

Take `OCCN(CCO)c1nc(N2CCCCC2)c2nc(N(CCO)CCO)nc(N3CCCCC3)c2n1` [dipyridamole]: the mCherry in assay [1] is 97.4% and 86%. Further, in assay [2], the percent effect was -10.7% and -11.3%.

In assay [1], `CC(C)(Oc1ccc(Cl)cc1)C(=O)OCc1cccnc1` [nicofibrate] returned a mCherry of 103%. Besides, the percent effect in assay [2] was -2.28%.

As to `C#CCN(C)Cc1ccccc1` [pargyline], in assay [1], the mCherry stood at 102%. For the same compound, the percent effect in assay [2] is -7.35%.

In assay [1], `CN1CCN(CCCCN2C(=O)CN(/N=C/c3ccc(-c4ccc(Cl)cc4)o3)C2=O)CC1` [azimilide] returned a mCherry of 95.8%. In addition, the percent effect in assay [2] is -2.07%.

Take `COc1ccc(-c2nc(C(F)(F)F)sc2-c2ccc(OC)cc2)cc1` [itazigrel]: the mCherry in assay [1] came to 84.8%. Further, the percent effect in assay [2] was -4.89%.

The compound `CC(C)(C(=O)c1cccnc1)c1cccnc1` [metyrapone] gave a mCherry in assay [1] of 98.5%. Also, the percent effect in assay [2] was 2.36%.

`CCc1cccc(N(C)C(=N)Nc2cccc3ccccc23)c1` [aptiganel]: the mCherry in assay [1] was 87.8%. In addition, in assay [2], the percent effect amounted to 1.71%.

Regarding `CC(C(=O)O)c1ccc(C(=O)c2ccccc2)s1` (stereo not given) [tiaprofenic acid], in assay [1], the mCherry was 74.1%. Also, in assay [2], the percent effect was -4.48%.

In turn, `Cc1c(O)cccc1C(=O)N[C@@H](CSc1ccccc1)[C@H](O)CN1C[C@H]2CCCC[C@H]2C[C@H]1C(=O)NC(C)(C)C` [nelfinavir] displayed a mCherry in assay [1] of 74.6%. In assay [2], the percent effect came to 2.54%.

Take `CCC(C)n1ncn(-c2ccc(N3CCN(c4ccc(OCC5COC(Cn6cncn6)(c6ccc(Cl)cc6Cl)O5)cc4)CC3)cc2)c1=O` (stereo not given): in assay [1], the mCherry is 87.9%. Besides, the percent effect in assay [2] was -5.41%.

Consider `COc1ccc2c(c1)N(CCCN(C)C)c1ccccc1S2` [methopromazine], for which, in assay [1], the mCherry was 72.7%. In assay [2], the percent effect was -0.341%.

The compound `Cc1cc(NS(=O)(=O)c2ccc(N)cc2)no1` [sulfamethoxazole] gave a mCherry in assay [1] of 124%. In addition, the percent effect in assay [2] is -9.05%.

Compound `C1N2CN3CN1CN(C2)C3` [methenamine] gave a mCherry in assay [1] of 98%. The percent effect in assay [2] was -4.42%.

As to `N[C@@H](CC(=O)O)C(=O)O` [aspartic acid], the mCherry in assay [1] worked out at 112%. The percent effect in assay [2] was -1.53%.

`Cc1c(C(C)C)c(=O)n(-c2ccccc2)n1C` [propyphenazone]: in assay [1], the mCherry turned out to be 110%. The percent effect in assay [2] was -2.88%.

As to `Cc1nc2ccccn2c(=O)c1CCN1CCC(C(=O)c2ccc(F)cc2)CC1` [pirenperone], the mCherry in assay [1] is 101%. The percent effect in assay [2] is -0.52%.

Turning to `CCOC(=O)/C=C(C)/C=C/C=C(C)/C=C/c1c(C)cc(OC)c(C)c1C` [etretinate], the mCherry in assay [1] was 60.4%. The percent effect in assay [2] is 0.139%.

Take `C1COC(NC(C2CC2)C2CC2)=N1` [Rilmenidine phosphate]: the mCherry in assay [1] is 94.1%. In addition, the percent effect in assay [2] is -1.67%.

`CCn1cc(C(=O)O)c(=O)c2ccc(C)nc21` [nalidixic acid] gave a mCherry in assay [1] of 115%. Besides, the percent effect in assay [2] was -2.76%.

Turning to `CCOC(=O)c1nc(=O)c2cc3cc(OC)c(OC)cc3nc2[nH]1` [pirolate], in assay [1], the mCherry is 95.4%. Moreover, the percent effect in assay [2] was -1.02%.

Consider `c1ccc2c(c1)CCCC2C1=NCCN1` (stereo not given) [tetryzoline], for which the mCherry in assay [1] worked out at 131%. In assay [2], the percent effect is -6.35%.

For `O=C(N[C@@H](Cc1c[nH]c2ccccc12)C(=O)O)c1ccc(Cl)cc1` [benzotript], the mCherry in assay [1] came out at 96.7%. For the same compound, the percent effect in assay [2] was -6.31%.

`CCC(O)(c1ccccc1)c1cccc(C(F)(F)F)c1` (stereo not given) [flumecinol] gave a mCherry in assay [1] of 119%. Further, in assay [2], the percent effect is -2.87%.

In assay [1], `Nc1ccc(S(=O)(=O)c2cnc(N)s2)cc1` [thiazosulfone] returned a mCherry of 146%. Also, in assay [2], the percent effect was -0.212%.

For the compound `Nc1nc(=O)c2nc(CNc3ccc(C(=O)N[C@@H](CCC(=O)O)C(=O)O)cc3)cnc2[nH]1`, the mCherry in assay [1] was 82%. In assay [2], the percent effect is -0.766%.

`CC1(C)CCC(C)(C)c2cc(NC(=O)c3ccc(C(=O)O)cc3)ccc21` [tamibarotene] gave a mCherry in assay [1] of 110%. Further, the percent effect in assay [2] was -0.252%.

With `O=C(OCCN1CCN(c2cccc(C(F)(F)F)c2)CC1)c1ccccc1Nc1ccnc2cc(C(F)(F)F)ccc12` [antrafenine], the mCherry in assay [1] came to 91.7%. The percent effect in assay [2] was -4.57%.

Consider `Cc1c(C(=O)OCCO)[n+]([O-])c2ccccc2[n+]1[O-]` [temodox], for which the mCherry in assay [1] was 72.1%. For the same compound, in assay [2], the percent effect was -12.8%.

In turn, `C[C@H](CCC(=O)O)[C@H]1CC[C@H]2[C@@H]3C(=O)C[C@@H]4CC(=O)CC[C@]4(C)[C@H]3CC(=O)[C@]12C` [dehydrocholic acid] displayed a mCherry in assay [1] of 122%. In assay [2], the percent effect is -11%.

As to `CCc1cc(Cl)c(OC)c(C(=O)NC[C@@H]2CCCN2CC)c1O` [eticlopride], in assay [1], the mCherry is 78.8%. Besides, the percent effect in assay [2] is -7.92%.

As to `CC(Oc1c(Cl)cccc1Cl)C1=NCCN1` (stereo not given), the mCherry in assay [1] stood at 90.7%. For the same compound, the percent effect in assay [2] was -1.23%.

In the case of `CCCCc1oc2ccccc2c1C(=O)c1cc(I)c(OCCN(CC)CC)c(I)c1` [amiodarone], the mCherry in assay [1] was 95.4% and 70.6%. In addition, the percent effect in assay [2] was -0.722% and 2.68%.

For `C#CCOC[C@H]1CO[C@](Cn2ccnc2)(c2ccc(Cl)cc2Cl)O1` [parconazole], in assay [1], the mCherry was found to be 69.3%. The percent effect in assay [2] is -1.89%.

For the compound `CCc1oc2ccccc2c1C(=O)c1cc(I)c(O)c(I)c1` [benziodarone], in assay [1], the mCherry was 105%. Besides, in assay [2], the percent effect was -0.0238%.

`Cc1c(CN2CCOC(c3ccccc3)C2C)c(=O)n(-c2ccccc2)n1C` (stereo not given) [morazone] returned a mCherry in assay [1] of 62.8%. In addition, the percent effect in assay [2] is -1.81%.
